Reference: US20210401791A1, “METHODS AND COMPOSITIONS FOR REDUCING ALCOHOL TOXICITY” (THE JOHNS HOPKINS UNIVERSITY, priority 2011, published 2021)
Some results were stated once for a whole list of compounds, not compound by compound. At least one compound was matched to its structure with a doubt left.

Columns and labels:
[1] = system: Aldh1a1; assay: mRNA expression of Aldh1a1 in Hepa1c1c7 cells (real-time PCR); assay type: cell-based, mouse; conditions: 24 hours, SF 1 or 3 μM, TP-225 0.003 or 0.01 μM, BNF 0.3 or 1 μM
[2] = system: Aldh2; assay: mRNA expression of Aldh2 in Hepa1c1c7 cells (real-time PCR); assay type: cell-based, mouse; conditions: 24 hours, SF 1 or 3 μM, TP-225 0.003 or 0.01 μM, BNF 0.3 or 1 μM

| Compound | Aldh1a1 mRNA expression level, fold higher than control [1] | Aldh2 mRNA expression level, fold higher than control [2] |
| --- | --- | --- |
| O=c1cc(-c2ccccc2)oc2ccc3ccccc3c12 [BNF] | 1.2-1.5 fold | 1.2-1.5 fold |
| CC1(C)CC[C@]2(C#N)CC[C@]3(C)[C@H](C(=O)C=C4[C@@]5(C)C=C(C#N)C(=O)C(C)(C)[C@@H]5CC[C@]43C)[C@@H]2C1 [TP-225] | 1.2-1.5 fold | 1.2-1.5 fold |
